The values that follow come from US5409946A, “Isoxazole, isothiazole and pyrazole compounds that enhance cognitive function” (Abbott Laboratories, priority 1993, dated 1995).

Data set [1] has as its system neuronal nicotinic cholinergic channels in PC12 cells. Nature of the data set: Cholinergic channel activator action in PC12 cells, whole-cell patch-clamp. Format: cell-based, rat. The note with it: for Hill coefficient (n): PC12 cells, mean ± S.E.M. As for the experimental part: Electrophysiologic recordings were obtained from differentiated (neurite-bearing) cells after 4-7 days exposure to NGF. […] After 20 minutes, differentiating medium was added (DMEM containing 100 ng/ml nerve growth factor, 5% heat-inactivated fetal calf serum and 2.5% heat-inactivated horse serum) and the cells were refed with this medium every 3 days.
The intracellular (recording pipette) solution consisted of 140 mM KCl, 1.0 mM CaCl2, 2.0 mM MgCl2, 11 mM K-EGTA, and 10 mM K-HEPES buffer (7.3 pH, 315 mOsm). Osmolarities were adjusted using dextrose such that the extracellular solution was 10 mOsm hypertonic compared to the intracellular solution. Voltage-gated inward (sodium) and outward (potassium) currents were monitored throughout the experiment to determine establishment and maintenance of the whole-cell recording configuration.
A general note: The patch-clamp technique gives a direct electrical read-out from membranes.

The subject of a further data set is muscarinic receptors. Format: binding, rat. The note with it: for Muscarinic Ki / Nicotinic Ki: ratio, selectivity for nicotinic over muscarinic receptor. As for the experimental part: The potencies of ligand binding at central muscarinic binding sites were determined by analysis of competition with the specific muscarinic receptor radioligand [^3 H]-quinuclidinyl benzilate ([^3 H]-QNB). […] Competition between various concentrations of putative nicotinic ligand compounds and 0.2 nM [^3 H]-QNB was performed at 25° C. in an assay volume of 1 mL. After 75 minutes, the bound radioligand was separated by vacuum filtration on Whatman GF/B glass fiber filters. Non-specific binding was defined as radioactivity remaining in the presence of 10 μM atropine. Competition curves were analyzed for Ki values as described above for binding to the nicotinic receptor.

SMILES strings stand for the structures.

Consider `Cc1cc([C@@H]2CCCN2C)on1.O=C(O)C(=O)O` [Example 2, 3-Methyl-5-(1-methyl-2(S)-pyrrolidinyl)-isoxazole oxalate salt], for which the “Hill coefficient (n)” value in data set [1] turned out to be 1.18 ± 0.29. Moreover, the “apparent potency less than that of (-)-nicotine” value in data set [1] (fold less potent than (-)-nicotine) was “about 4 fold”. Further, the “selectivity for nicotinic receptors relative to arecoline” value with muscarinic receptors (compared with arecoline) is recorded as 376 fold. In addition, the “Muscarinic Ki / Nicotinic Ki” value with muscarinic receptors is recorded as 32,000.
In the case of `COC(=O)C1=CCCN(C)C1` [Arecoline, reference compound], in the data set on muscarinic receptors, the “Muscarinic Ki / Nicotinic Ki” value was found to be 85.
On to `CN1CCCC1c1cccnc1` (single isomer, unassigned; (-)) [(-)-Nicotine, reference compound], for which the “Hill coefficient (n)” value in data set [1] is recorded as 1.77 ± 0.18.
